This passage reports TEAD-luciferase reporter activity results from the supplement of paper PMC10735217.

Where a name gives a salt, the structure may show the parent alone. The list shows a part of the results. Repeats in this data set agree poorly, so a single value says little.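 In a drug-repurposing library screen, luminescence reads luciferase driven by eight TEAD-binding elements, stably integrated into human kidney-derived cells. Compounds scoring over five robust Z scores above the plate mean are called hits.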

The assay relates to HEK293A TEAD-LUC reporter. Kind of assay: TEAD-luciferase reporter activity (YAP activation), robust Z score vs plate; higher = stronger YAP/TEAD activation. The note with it: 24 h. A general note: In a reporter assay the amount or activity of a reporter protein is the signal.

Consider `CNCCCOc1cc(F)c(-c2c(Cl)nc3ncnn3c2N[C@@H](C)C(F)(F)F)c(F)c1`, for which the TEAD-luciferase reporter activity (compound concentration: 2 uM) was inactive: 1.33.
As to `CNCCCOc1cc(F)c(-c2c(Cl)nc3ncnn3c2N[C@@H](C)C(F)(F)F)c(F)c1` [cevipabulin fumarate], the TEAD-luciferase reporter activity is inactive: 0.0105 (compound concentration: 200 nM), inactive: 3.87 (compound concentration: 2 uM) and inactive: 3.79 (compound concentration: 10 uM).
The corresponding values for `C[C@@H]1CN(c2c(F)c(F)c3c(=O)c(C(=O)O)cn(C4CC4)c3c2F)C[C@H](C)N1` [Orbifloxacin] are inactive: -0.599, inactive: 1.35 and inactive: -0.0616.
The corresponding values for `Cc1ccc(N2CCN(C)CC2)c2c1CC[C@@H](NC(=O)c1ccc(N3CCOCC3)cc1)C2` are inactive: -0.0776, inactive: -0.855 and inactive: -0.456.
The corresponding values for `O=C(O)c1cn(-c2ccc(F)cc2)c2cc(N3CCNCC3)c(F)cc2c1=O` [Sarafloxacin hydrochloride] are inactive: -0.329, inactive: -1.04 and inactive: 4.81.
Regarding `c1cc(-c2nc3c4c(ncc3[nH]2)CCOC4)no1`, the TEAD-luciferase reporter activity was inactive: 1.2 (compound concentration: 200 nM), inactive: 0.185 (compound concentration: 2 uM) and inactive: -0.917 (compound concentration: 10 uM).
Consider `Cn1cnc2c1c(=O)n(CCCN1CCC(C(=O)c3ccccc3)CC1)c(=O)n2C`, for which the TEAD-luciferase reporter activity (compound concentration: 200 nM) was inactive: -1.76, the TEAD-luciferase reporter activity (compound concentration: 2 uM) was inactive: -1.18 and the TEAD-luciferase reporter activity (compound concentration: 10 uM) was inactive: 3.72.
On to `OC[C@H]1O[C@@H](n2cnc3c(NCC(c4ccccc4)c4ccccc4)ncnc32)[C@H](O)[C@@H]1O`, for which the TEAD-luciferase reporter activity was inactive: 0.918 (compound concentration: 200 nM), inactive: 0.138 (compound concentration: 2 uM) and inactive: 3.59 (compound concentration: 10 uM).
Taken in the same sequence, the figures for `C[C@@H]1COC(Nc2ccc3ncnc(Nc4ccc(OCc5nccs5)c(Cl)c4)c3c2)=N1` [varlitinib] were inactive: -1.42, inactive: 3.68 and inactive: -0.384.
With `O=C(O)Cc1ccc(COc2cccc(-c3c(Cc4ccccc4)cnc4c(C(F)(F)F)cccc34)c2)cc1`, the TEAD-luciferase reporter activity by setting is: (compound concentration: 200 nM) inactive: 0.0339; (compound concentration: 2 uM) inactive: -0.215; (compound concentration: 10 uM) inactive: -0.792.
Taken in the same sequence, the figures for `OCC(CO)n1cnc(-c2ccc(F)cc2)c1-c1ccnc(Oc2ccccc2)n1` were inactive: -0.839, inactive: -1.24 and inactive: -1.55.
Taken in the same sequence, the figures for `Nc1nc(N)c2ncn(C3COC(CO)O3)c2n1` (configuration not stated) [Amdoxovir] were inactive: -1.03, inactive: -0.879 and inactive: 1.51.
The corresponding values for `CC1=C(CC(=O)O)c2cc(F)ccc2/C1=C/c1ccc(S(C)=O)cc1` (configuration not stated) are inactive: -0.2, inactive: 0.0963 and inactive: -0.265.
As for `Cn1c(C#N)ccc1-c1cc(F)c2c(c1)C(C)(C)C(=O)N2`, the TEAD-luciferase reporter activity was inactive: -0.105 (compound concentration: 200 nM), inactive: 0.641 (compound concentration: 2 uM) and inactive: -0.441 (compound concentration: 10 uM).
Taken in the same sequence, the figures for `CC(C)N(CCO/N=C1\CCCCC\C1=C\c1ccccc1)C(C)C` [stirocainide] were inactive: 0.384, inactive: 0.447 and inactive: 2.3.
Taken in the same sequence, the figures for `COc1ccc([C@]2(C#N)CC[C@@H](C(=O)O)CC2)cc1OC1CCCC1` [cilomilast] were inactive: -2.11, inactive: -0.815 and inactive: -0.872.
Regarding `O=C(O)c1cccnc1Nc1cccc(C(F)(F)F)c1`, the TEAD-luciferase reporter activity runs as follows: (compound concentration: 200 nM) inactive: -1.07; (compound concentration: 2 uM) inactive: -1.41; (compound concentration: 10 uM) inactive: 1.27.
The corresponding values for `CC(C)C(NC(=O)Cn1c(-c2ccccc2)ncc(N)c1=O)C(=O)c1nnc(C(C)(C)C)o1` (configuration not stated) [Freselestat] are inactive: -0.367, inactive: -0.262 and inactive: -1.06.
Taken in the same sequence, the figures for `Cc1cc(C)cc(NC(=O)Cc2ccc(OC(C)(C)C(=O)[O-])cc2)c1` [Efaproxiral (sodium)] were inactive: -1.64, inactive: -1.08 and inactive: 0.14.
The corresponding values for `CCC[C@H](NC(=O)[C@@H]1C[C@@H](Oc2cc(-n3cccn3)nc3cc(OC)ccc23)CN1C(=O)[C@@H](NC(=O)NC(C)(C)C)C(C)(C)C)C(=O)C(=O)NC1CC1` are inactive: 0.206, inactive: -0.0827 and inactive: 1.1.
As to `COc1ccc(C(=O)N2CCC3(CC2)Cc2ccccc2NC3=O)cc1`, the TEAD-luciferase reporter activity was inactive: -1.02 (compound concentration: 200 nM) and inactive: 1.83 (compound concentration: 10 uM).
`CC(C)C[C@H](NC(=O)[C@H](CC(N)=O)NC(=O)[C@H](CCC(=O)O)NC(=O)CNC(=O)[C@@H]1CCCN1C(=O)[C@H](CCC(N)=O)NC(=O)[C@H](Cc1ccc(O)cc1)NC(=O)[C@H](CCC(N)=O)NC(=O)[C@@H]1CCCN1C(=O)[C@H](CCC(=O)O)NC(=O)[C@@H](NC(=O)[C@H](CO)NC(=O)[C@@H](N)[C@@H](C)O)[C@@H](C)O)C(=O)O` [Tsumura-zokumeito]: the TEAD-luciferase reporter activity was inactive: 0.282 (compound concentration: 200 nM), inactive: -0.395 (compound concentration: 2 uM) and inactive: -0.636 (compound concentration: 10 uM).
For the molecule `CNC1(C)C2CCC(C2)C1(C)C` (configuration not stated) [mecamylamine HCl], for the setting “compound concentration: 2 uM”, the TEAD-luciferase reporter activity was inactive: 0.546.
`CNC1(C)C2CCC(C2)C1(C)C` (configuration not stated): the TEAD-luciferase reporter activity (compound concentration: 200 nM) was inactive: -0.601 and the TEAD-luciferase reporter activity (compound concentration: 10 uM) is inactive: 0.503.
For `C=CC[N+]1([C@H]2C[C@H]3[C@@H]4CC[C@H]5C[C@H](OC(C)=O)[C@@H](N6CCC7(CC6)OCCO7)C[C@]5(C)[C@H]4CC[C@]3(C)[C@H]2OC(C)=O)CCCC1`, the TEAD-luciferase reporter activity reads like this: (compound concentration: 200 nM) inactive: -1.3; (compound concentration: 2 uM) inactive: -0.621; (compound concentration: 10 uM) inactive: -0.54.
Taken in the same sequence, the figures for `CC(C)OC(=O)c1cn(Cc2c(F)cccc2F)c2sc(-c3ccc(NC(=O)C(C)C)cc3)c(CN(C)Cc3ccccc3)c2c1=O` were inactive: -0.716, inactive: -0.372 and inactive: 4.85.
On to `CC[C@@H]1C(=O)N(C)c2cnc(Nc3ccc(C(=O)N[C@H]4CC[C@H](N5CCN(CC6CC6)CC5)CC4)cc3OC)nc2N1C(C)C` [Volasertib], for which the TEAD-luciferase reporter activity (compound concentration: 200 nM) was inactive: -1.26, the TEAD-luciferase reporter activity (compound concentration: 2 uM) was active: 6.14 and the TEAD-luciferase reporter activity (compound concentration: 10 uM) is inactive: 0.942.
Taken in the same sequence, the figures for `Nc1ncn(C2C[C@H](O)[C@@H](CO)O2)c(=O)n1` (some centres not stated) [Decitabine] were inactive: 1.79, inactive: 0.412 and active: 7.38.
The corresponding values for `Fc1ccccc1-c1nc2ccn(Cc3ccc(-c4ccc(C(F)(F)F)cc4C(F)(F)F)nn3)cc-2n1` [tegobuvir] are inactive: -2.7, inactive: 0.151 and inactive: -0.135.
With `Nc1nc(N)nc(-c2cc(Cl)ccc2Cl)n1` [irsogladine], the TEAD-luciferase reporter activity (compound concentration: 2 uM) is inactive: -2.46.
On to `Nc1nc(N)nc(-c2cc(Cl)ccc2Cl)n1`, for which the TEAD-luciferase reporter activity is inactive: -1.51 (compound concentration: 200 nM) and inactive: 0.715 (compound concentration: 10 uM).
On to `CC(C)n1c(=O)cc(N[C@@H](C)c2ccccc2)[nH]c1=O` [Mavacamten], for which the TEAD-luciferase reporter activity (compound concentration: 200 nM) is inactive: -1.17, the TEAD-luciferase reporter activity (compound concentration: 2 uM) is inactive: 0.991 and the TEAD-luciferase reporter activity (compound concentration: 10 uM) was inactive: 0.117.
